69 molecules from ChEMBL document CHEMBL4513141, “CO-ADD screening of NIH (USA) - Clinical Collection” (2021) can be followed below.

Where “and” joins values, the source holds several entries; their conditions need not be identical. Equal values may be shown once. Some of the results follow. Entries with a potency or affinity are not part of this list.

This assay relates to Acinetobacter baumannii. The following applies: Concentration 20 uM, ASSAY_TEST Inhibition of Bacterial Growth, detection method Absorption (OD600), MEDIA CAMHB, plate type 384well, NBS, CORNING #3640, time 18 hr.

As a reminder, the Inhibition is the relative decrease from the control value, in per cent. In the case of `NC(=O)N1c2ccccc2C=Cc2ccccc21` [CARBAMAZEPINE], the Inhibition is listed as 21.57%.
The same measure, in the same setting: as for `Cc1cccc(CN2CCN(C(c3ccccc3)c3ccc(Cl)cc3)CC2)c1.Cl.Cl` (centres undefined), the figure is 25.5%.
Take `CCN1CC(CCN2CCOCC2)C(c2ccccc2)(c2ccccc2)C1=O.Cl` (centres undefined): the Inhibition is 6.29%.
For `CCCN[C@H]1CCc2nc(N)sc2C1` [PRAMIPEXOLE], the Inhibition turned out to be 8.28%.
Same read-out and setting: under `CC(=CCC1=C(C)C(=O)c2ccccc2C1=O)CCCC(C)CCCC(C)CCCC(C)C` (centres undefined) stands -0.31%; under `CC(N/C(=N\C#N)Nc1ccncc1)C(C)(C)C.O` (centres undefined), 16.59%; under `C[C@]12C=CC(=O)C=C1CC[C@@H]1[C@@H]2C(=O)C[C@@]2(C)[C@H]1CC[C@]2(O)C(=O)CO` [PREDNISONE], 30.84%.
As to `Cc1cnc(NC(=O)C2=C(O)c3ccccc3S(=O)(=O)N2C)s1` [MELOXICAM], the Inhibition is reported as 6.81%.
Still for that read-out and setting: under `Cl.O=C1CN2Cc3c(ccc(Cl)c3Cl)N=C2N1` [ANAGRELIDE HYDROCHLORIDE] stands 21%; under `CN(Cc1cnc2nc(N)nc(N)c2n1)c1ccc(C(=O)N[C@@H](CCC(=O)O)C(=O)O)cc1.O`, 21.43%; under `C[n+]1ccccc1/C=N/O.[Cl-]` [PRALIDOXIME CHLORIDE], 13.89%.
Still for that read-out and setting: under `CNCC[C@H](Oc1cccc2ccccc12)c1cccs1.Cl` [DULOXETINE HYDROCHLORIDE] stands 15.34%; under `CNC(=C[N+](=O)[O-])NCCSCc1ccc(CN(C)C)o1.Cl` [RANITIDINE HYDROCHLORIDE], 8.18%.
Still for that read-out and setting: as for `CC1=Nc2ccc(Cl)cc2S(=O)(=O)N1` [DIAZOXIDE], the figure is 20.27%; as for `O=C(NCCO[N+](=O)[O-])c1cccnc1` [NICORANDIL], 32.42%; as for `CC1CCN(CCCC(=O)c2ccc(F)cc2)CC1.Cl`, 6.18%.
Turning to `CN1CCC(=C2c3ccccc3CC(=O)c3sccc32)CC1.O=C(O)/C=C/C(=O)O` [KETOTIFEN FUMARATE], the Inhibition was determined as 11.38%.
For `CC1Cc2ccccc2N1NC(=O)c1ccc(Cl)c(S(N)(=O)=O)c1` (centres undefined) [INDAPAMIDE], the Inhibition was determined as 0.29%.
`CCc1c(C)[nH]c2c1C(=O)C(CN1CCOCC1)CC2.Cl` (centres undefined) [MOLINDONE HYDROCHLORIDE]: the Inhibition is reported as 10.39%.
Still for that read-out and setting: under `Cc1ccc(Cl)c(Nc2ccccc2C(=O)[O-])c1Cl.O.[Na+]` [MECLOFENAMATE SODIUM] stands 24.06%.
For the molecule `CC(C)NCC(O)COc1ccc(COCCOC(C)C)cc1.CC(C)NCC(O)COc1ccc(COCCOC(C)C)cc1.O=C(O)/C=C/C(=O)O` (centres undefined) [BISOPROLOL FUMARATE], the Inhibition was 30.23%.
Take `CC(=O)O[C@]1(C(C)=O)CC[C@H]2[C@@H]3C=C(C)C4=CC(=O)CC[C@]4(C)[C@H]3CC[C@@]21C` [MEGESTROL ACETATE]: the Inhibition turned out to be 10.5%.
Take `CCCCN1CCCC1CNC(=O)c1cc(C#N)c2ccccc2c1OC` (centres undefined) [NAFADOTRIDE]: the Inhibition amounted to 10.28%.
The same measure, in the same setting: as for `COc1ccc(C2CNC(=O)C2)cc1OC1CCCC1` (centres undefined) [ROLIPRAM], the figure is 23.36%.
In the case of `OC[C@H]1O[C@@H](Oc2cc(O)cc(/C=C/c3ccc(O)cc3)c2)[C@H](O)[C@@H](O)[C@@H]1O` [PICEID], the Inhibition is recorded as 8.91%.
The same measure, in the same setting: as for `CC1(C)C[C@@H]1C(=O)N/C(=C\CCCCSC[C@H](N)C(=O)O)C(=O)[O-].[Na+]` [CILASTATIN SODIUM], the figure is 6.76%; as for `O=[N+]([O-])c1cccc2cn[nH]c12` [7-NITROINDAZOLE], 29.85%; as for `CCCNCC(O)COc1ccccc1C(=O)CCc1ccccc1` (centres undefined) [PROPAFENONE], 18.62%.
For `CN[C@@H]1[C@H](O)[C@H](NC)[C@H]2O[C@@]3(O)C(=O)C[C@@H](C)O[C@H]3O[C@@H]2[C@H]1O.Cl.Cl.Cl.O.O.O`, the Inhibition worked out at 33.48%.
With `CCc1nn(CCCN2CCN(c3cccc(Cl)c3)CC2)c(=O)n1CCOc1ccccc1.Cl` [NEFAZODONE HYDROCHLORIDE], the Inhibition came out at 7.37%.
Same read-out and setting: under `CN(C)c1nc(N(C)C)nc(N(C)C)n1` [ALTRETAMINE] stands 14.75%; under `COCC1=C(C(=O)OC(C)OC(=O)OC(C)C)N2C(=O)[C@@H](NC(=O)/C(=N\OC)c3csc(N)n3)[C@H]2SC1` (some centres undefined) [CEFPODOXIME PROXETIL], 8.65%.
For `CC[C@]1(O)C[C@@H]2CN(CCc3c([nH]c4ccccc34)[C@@](C(=O)OC)(c3cc4c(cc3OC)N(C=O)[C@H]3[C@@](O)(C(=O)OC)[C@H](OC(C)=O)[C@]5(CC)C=CCN6CC[C@]43[C@@H]65)C2)C1.O=S(=O)(O)O`, the Inhibition is reported as 22.27%.
As for `CC(C)(C)NC(=O)[C@H]1CC[C@H]2[C@@H]3CC[C@H]4NC(=O)C=C[C@]4(C)[C@H]3CC[C@]12C` [FINASTERIDE], the Inhibition is on record as 11.13%.
For `CC12CCC(=O)C=C1CCC1C2CCC2(C)C1CCC2(O)C(=O)CO` (centres undefined), the Inhibition is given as 14.88%.
`Cc1cccc(C)c1NC(=O)C1CCCCN1C.Cl` (centres undefined) [MEPIVACAINE HYDROCHLORIDE]: the Inhibition amounted to 31.45%.
Turning to `O=c1[nH]c(=O)n(C2CCCO2)cc1F` (centres undefined) [TEGAFUR], the Inhibition was 30.31%.
On to `CCOC(=O)[C@H](CCc1ccccc1)N[C@H]1CCc2ccccc2N(CC(=O)O)C1=O.Cl` [BENAZEPRIL HYDROCHLORIDE], for which the Inhibition stood at 20.8%.
The same measure, in the same setting: under `Cc1nc(=O)c2cc(CN(C)c3ccc(C(=O)N[C@@H](CCC(=O)O)C(=O)O)s3)ccc2[nH]1` [RALTITREXED] stands 12.09%; under `CC(=O)OCC(CCn1cnc2cnc(N)nc21)COC(C)=O` [FAMCICLOVIR], 33.5%.
For the molecule `CC(=O)O.CC(C)C[C@H](NC(=O)[C@@H](COC(C)(C)C)NC(=O)[C@H](Cc1ccc(O)cc1)NC(=O)[C@H](CO)NC(=O)[C@H](Cc1c[nH]c2ccccc12)NC(=O)[C@H](Cc1c[nH]cn1)NC(=O)[C@H]1CCC(=O)N1)C(=O)N[C@H](CCCNC(=N)N)C(=O)N1CCC[C@@H]1C(=O)NNC(N)=O`, the Inhibition was 6.07%.
With `CCCc1c(OCCCCc2nnn[nH]2)ccc(C(C)=O)c1O` [TOMELUKAST], the Inhibition was 9.11%.
Consider `C#C[C@]1(O)CC[C@H]2[C@@H]3[C@H](C)CC4=C(CCC(=O)C4)[C@H]3CC[C@@]21C` [TIBOLONE], for which the Inhibition is on record as 16.66%.
`CC(=O)C1(O)CCC2C3CC(C)C4=CC(=O)C=CC4(C)C3(F)C(O)CC21C` (centres undefined): the Inhibition is on record as 4.6%.
Still for that read-out and setting: as for `Cc1ccsc1C(=CCCN1CCC[C@@H](C(=O)O)C1)c1sccc1C.Cl` [TIAGABINE HYDROCHLORIDE], the figure is 20.44%; as for `CC(C)(C(=O)c1cccnc1)c1cccnc1` [METYRAPONE], 20.43%; as for `Cn1ccnc1S` [METHIMAZOLE], 27.8%.
Regarding `NNCCc1ccccc1.O=S(=O)(O)O` [PHENELZINE SULFATE], the Inhibition turned out to be 2.03%.
Still for that read-out and setting: under `COc1ccccc1N1CCN(CC(O)COc2cccc3ccccc23)CC1` (centres undefined) [NAFTOPIDIL] stands 5.99%; under `Cl.O.c1cnc(N2CCN(Cc3ccc4c(c3)OCO4)CC2)nc1`, 13.76%; under `Nc1nc(N)nc(-c2cc(Cl)ccc2Cl)n1.O=C(O)/C=C\C(=O)O` [IRSOGLADINE MALEATE], 14.74%.
`CN1CC(=O)N2[C@H](c3ccc4c(c3)OCO4)c3[nH]c4ccccc4c3C[C@@H]2C1=O`: the Inhibition is 22.42%.
`Cl.O.O=C1N(c2ccccc2)c2ccccc2C1(Cc1ccncc1)Cc1ccncc1`: the Inhibition was 3.98%.
Still for that read-out and setting: as for `CCCCCCCCCCC[C@@H](C[C@@H]1OC(=O)[C@H]1CCCCCC)OC(=O)[C@H](CC(C)C)NC=O` [ORLISTAT], the figure is 17.79%.
Same read-out and setting: under `CC(N)(Cc1ccc(O)c(O)c1)C(=O)O` (stereo not drawn) [METHYLDOPA (RACEMIC)] stands 10.65%; under `CCN(CC)CCOc1ccc(C(=C(Cl)c2ccccc2)c2ccccc2)cc1.O=C(O)CC(O)(CC(=O)O)C(=O)O` [CLOMIPHENE CITRATE], 26.88%.
`CC(Cc1ccc(O)c(O)c1)(NN)C(=O)O.O` (centres undefined): the Inhibition turned out to be 23.28%.
On to `Cc1[nH]c(=O)c(C#N)cc1-c1ccncc1` [MILRINONE], for which the Inhibition is given as 26.3%.
For the molecule `CS(=O)(=O)c1ccc(C2=C(c3ccccc3)C(=O)OC2)cc1` [ROFECOXIB], the Inhibition turned out to be 21.66%.
Regarding `C#C[C@]1(O)CC[C@H]2[C@@H]3CCC4=CC(=O)CC[C@@H]4[C@H]3CC[C@@]21CC` [LEVONORGESTREL], the Inhibition is 31.67%.
On the same count and under the same terms, under `CC[C@@]1(O)C(=O)OCc2c1cc1n(c2=O)Cc2cc3c(CN(C)C)c(O)ccc3nc2-1.Cl` [TOPOTECAN HYDROCHLORIDE] stands 31.27%; under `Cc1ncc([N+](=O)[O-])n1CC(O)CCl` (centres undefined) [ORNIDAZOLE], 23.52%.
Same read-out and setting: as for `CN(C)CCCN1c2ccccc2Sc2ccc(Cl)cc21.Cl` [CHLORPROMAZINE HYDROCHLORIDE], the figure is 24.94%.
Still for that read-out and setting: as for `CN1C(C(=O)Nc2ccccn2)=C(O)c2ccccc2S1(=O)=O.O`, the figure is 15.76%.
Consider `CCCCC1=NC2(CCCC2)C(=O)N1Cc1ccc(-c2ccccc2-c2nnn[nH]2)cc1` [IRBESARTAN], for which the Inhibition was found to be 6.33%.
`CC(C)NCC(O)c1ccc(NS(C)(=O)=O)cc1.Cl` (centres undefined) [SOTALOL HYDROCHLORIDE]: the Inhibition turned out to be 14.12%.
Take `C[C@@H]1C[C@H]2[C@@H]3CCC4=CC(=O)C=C[C@]4(C)[C@@]3(F)[C@@H](O)C[C@]2(C)[C@@]1(O)C(=O)CO` [DEXAMETHASONE]: the Inhibition (20 µM) was 8.59% and 9.81%.
Turning to `C[C@@H]1C[C@H]2[C@@H]3CCC4=CC(=O)C=C[C@]4(C)[C@@]3(F)[C@@H](O)C[C@]2(C)[C@H]1C(=O)CO` [DESOXIMETASONE], the Inhibition was -0.17%.
For `CN(C)CCCN1c2ccccc2CCc2ccccc21.Cl` [IMIPRAMINE HYDROCHLORIDE], the Inhibition was found to be 4.65%.
